Common to all, as to parameters: species or system human
Series [1] relates to HLA-A*24 molecules of primary tumors. Description: Identification and relative LC-MS quantitation of HLA-A*24 tumor-associated peptides presented on tissue samples (XPRESIDENT presentation profiles). The note with it: Table 9A: selected HLA-A*24-binding tumor-associated peptides; cancer entities on which the peptide was found presented.
The test system of series [2] is source genes of selected peptides. Description: Expression profiling of source genes by in-house RNAseq, tumor vs normal tissues (target coverage). The note with it: for Target coverage, over-expression of source gene, AML: AML (N = 7); for Target coverage, over-expression of source gene, AML / Target coverage, over-expression of source gene, BRCA / Target coverage, over-expression of source gene, CLL / Target coverage, over-expression of source gene, CRC / Target coverage, over-expression of source gene, GB / Target coverage, over-expression of source gene, HCC / Target coverage, over-expression of source gene, OC / Target coverage, over-expression of source gene, OSCAR / Target coverage, over-expression of source gene, PC / Target coverage, over-expression of source gene, RCC / Target coverage, over-expression of source gene, SCLC / Target coverage, over-expression of source gene, pNSCLC: in-house RNASeq; for Target coverage, over-expression of source gene, BRCA: BRCA (N = 10); for Target coverage, over-expression of source gene, CLL: CLL (N = 10); for Target coverage, over-expression of source gene, CRC: CRC (N = 20); for Target coverage, over-expression of source gene, GB: GB (N = 24); for Target coverage, over-expression of source gene, HCC: HCC (N = 15); for Target coverage, over-expression of source gene, OC: OC (N = 12); for Target coverage, over-expression of source gene, OSCAR: OSCAR (N = 11); for Target coverage, over-expression of source gene, PC: PC (N = 26); for Target coverage, over-expression of source gene, RCC: RCC (N = 10); for Target coverage, over-expression of source gene, SCLC: SCLC (N = 10); for Target coverage for source genes of selected peptides, GBC_CCC (N = 10): gallbladder adenocarcinoma and cholangiocarcinoma; for Target coverage for source genes of selected peptides, GBC_CCC (N = 10) / Target coverage for source genes of selected peptides, GC (N = 11) / Target coverage for source genes of selected peptides, HNSCC (N = 10) / Target coverage for source genes of selected peptides, MEL (N = 10) / Target coverage for source genes of selected peptides, NHL (N = 10) / Target coverage for source genes of selected peptides, PCA (n = 10) / Target coverage for source genes of selected peptides, UBC (N = 10) / Target coverage for source genes of selected peptides, UTC (N = 10): share of tumors with more than 1.5-fold higher expression than the highest-expressing relevant normal tissue, in-house RNAseq; for Target coverage for source genes of selected peptides, GC (N = 11): gastric cancer; for Target coverage for source genes of selected peptides, HNSCC (N = 10): head and neck small cell carcinoma; for Target coverage for source genes of selected peptides, MEL (N = 10): melanoma; for Target coverage for source genes of selected peptides, NHL (N = 10): non-Hodgkin lymphoma; for Target coverage, over-expression of source gene, pNSCLC: pNSCLC (N = 11); for Target coverage for source genes of selected peptides, PCA (n = 10): prostate cancer and benign prostate hyperplasia; for Target coverage for source genes of selected peptides, UBC (N = 10): urinary bladder cancer; for Target coverage for source genes of selected peptides, UTC (N = 10): uterine cancer.

For series [3] the test system is unchanged. Briefly: Target coverage of source genes in tumor entities based on TCGA Research Network data. The note with it: over-expressed = more than 2-fold above the highest 75% percentile of normal organs; for Target coverage, over-expression category of source gene, BLCA (N = 408): Bladder urothelial carcinoma; for Target coverage, over-expression category of source gene, CESC (N = 307): Cervical squamous cell carcinoma and endocervical adenocarcinoma; for Target coverage, over-expression category of source gene, HNSC (N = 521): Head and neck squamous cell carcinoma; for Target coverage, over-expression category of source gene, DLBC (N = 48): Lymphoid neoplasm diffuse large B-cell lymphoma; for Target coverage, over-expression category of source gene, MESO (N = 87): Mesothelioma.

[4] abbreviates: over-expression = more than 1.5-fold higher expression on tumor vs highest-expressing relevant normal tissue.
[5] abbreviates: over-expression = more than 1.5-fold vs highest normal tissue.
[6] abbreviates: share of tumors with more than 1.5-fold higher expression than highest relevant normal tissue.

For some of these results: Expression grades refer to the transcript from which the peptide derives; gene names, where given, were looked up from the sequence.

Consider “100: peptide found in KIF20A (gene looked up) (VYIESRIGTSTSF; listed as Homo sapiens) [compound 100]”, for which the ENTITIES entry in series [1] is “GB, HCC, NSCLC, GC”. In addition, the “Target coverage, over-expression of source gene, AML” value in series [2] (setting [4]) was “I (<19% over-expression = I)”. In series [2] (setting [5]), the “Target coverage, over-expression of source gene, BRCA” value is “II (20-49% = II)”; the “Target coverage, over-expression of source gene, CLL” value was “I (<19% over-expression = I)”; the “Target coverage, over-expression of source gene, CRC” value was “I (<19% over-expression = I)”; the “Target coverage, over-expression of source gene, GB” value was “I (<19% over-expression = I)”. Also, in series [2] (setting [5]), the “Target coverage, over-expression of source gene, HCC” value is recorded as “I (<19% over-expression = I)”; the “Target coverage, over-expression of source gene, OC” value was “II (20-49% = II)”; the “Target coverage, over-expression of source gene, OSCAR” value was “II (20-49% = II)”; the “Target coverage, over-expression of source gene, PC” value is listed as “I (<19% over-expression = I)”. Further, in series [2] (setting [5]), the “Target coverage, over-expression of source gene, RCC” value is listed as “I (<19% over-expression = I)”; the “Target coverage, over-expression of source gene, SCLC” value is listed as “II (20-49% = II)”; the “Target coverage, over-expression of source gene, pNSCLC” value is listed as “I (<19% over-expression = I)”. In series [2], the “Target coverage for source genes of selected peptides, GBC_CCC (N = 10)” value was “I (<19% over-expression = I)”; the “Target coverage for source genes of selected peptides, GC (N = 11)” value was “I (<19% over-expression = I)”; the “Target coverage for source genes of selected peptides, HNSCC (N = 10)” value is “I (<19% over-expression = I)”; the “Target coverage for source genes of selected peptides, MEL (N = 10)” value was “II (20-49% = II)”. For the same substance, in series [2], the “Target coverage for source genes of selected peptides, NHL (N = 10)” value was “I (<19% over-expression = I)”; the “Target coverage for source genes of selected peptides, PCA (n = 10)” value is “I (<19% over-expression = I)”; the “Target coverage for source genes of selected peptides, UBC (N = 10)” value is reported as “I (<19% over-expression = I)”; the “Target coverage for source genes of selected peptides, UTC (N = 10)” value was “I (<19% over-expression = I)”. The “Target coverage, over-expression category of source gene, ACC (N = 79)” value in series [3] (Adrenocortical carcinoma) is on record as “C (>=5% of tumors above the cutoff, but <20%)”. Further, in series [3], the “Target coverage, over-expression category of source gene, BLCA (N = 408)” value is listed as “B (>=20% of tumors above the cutoff, but <50%)”; the “Target coverage, over-expression category of source gene, CESC (N = 307)” value was “A (>=50% of tumors above the cutoff)”; the “Target coverage, over-expression category of source gene, HNSC (N = 521)” value is “B (>=20% of tumors above the cutoff, but <50%)”; the “Target coverage, over-expression category of source gene, DLBC (N = 48)” value is “C (>=5% of tumors above the cutoff, but <20%)”. The “Target coverage, over-expression category of source gene, MESO (N = 87)” value in series [3] is reported as “B (>=20% of tumors above the cutoff, but <50%)”.
For the substance “210: peptide found in BUB1B (gene looked up) (IYAGVGEFSF; listed as Homo sapiens) [compound 210]”, the ENTITIES entry in series [1] is “NSCLC, GC”. In addition, in series [2] (setting [6]), the “Target coverage, over-expression of source gene, AML” value is given as “I (<19% over-expression = I)”; the “Target coverage, over-expression of source gene, BRCA” value was “I (<19% over-expression = I)”; the “Target coverage, over-expression of source gene, CLL” value is “I (<19% over-expression = I)”; the “Target coverage, over-expression of source gene, CRC” value is listed as “I (<19% over-expression = I)”. Besides, in series [2] (setting [6]), the “Target coverage, over-expression of source gene, GB” value is “I (<19% over-expression = I)”; the “Target coverage, over-expression of source gene, HCC” value is listed as “I (<19% over-expression = I)”; the “Target coverage, over-expression of source gene, OC” value is given as “I (<19% over-expression = I)”; the “Target coverage, over-expression of source gene, OSCAR” value is recorded as “I (<19% over-expression = I)”. Further, in series [2] (setting [6]), the “Target coverage, over-expression of source gene, PC” value is recorded as “I (<19% over-expression = I)”; the “Target coverage, over-expression of source gene, RCC” value is given as “I (<19% over-expression = I)”; the “Target coverage, over-expression of source gene, SCLC” value is recorded as “II (20-49% = II)”; the “Target coverage, over-expression of source gene, pNSCLC” value was “I (<19% over-expression = I)”. In series [3], the “Target coverage, over-expression category of source gene, BLCA (N = 408)” value is listed as “B (>=20% of tumors above the cutoff, but <50%)”; the “Target coverage, over-expression category of source gene, CESC (N = 307)” value is listed as “A (>=50% of tumors above the cutoff)”; the “Target coverage, over-expression category of source gene, HNSC (N = 521)” value is “B (>=20% of tumors above the cutoff, but <50%)”; the “Target coverage, over-expression category of source gene, DLBC (N = 48)” value is “B (>=20% of tumors above the cutoff, but <50%)”. The “Target coverage, over-expression category of source gene, MESO (N = 87)” value in series [3] is listed as “C (>=5% of tumors above the cutoff, but <20%)”. Further, the “Target coverage, over-expression category of source gene, LGG (N = 534)” value in series [3] (Lower grade glioma) is given as “C (>=5% of tumors above the cutoff, but <20%)”.
As for “105: peptide found in CENPE (gene looked up) (IYNETITDLL; listed as Homo sapiens) [compound 105]”, the ENTITIES result in series [1] is “GC, GB, HCC, NSCLC”. In series [2], the “Target coverage for source genes of selected peptides, GBC_CCC (N = 10)” value is on record as “I (<19% over-expression = I)”; the “Target coverage for source genes of selected peptides, GC (N = 11)” value was “I (<19% over-expression = I)”; the “Target coverage for source genes of selected peptides, HNSCC (N = 10)” value is listed as “I (<19% over-expression = I)”; the “Target coverage for source genes of selected peptides, MEL (N = 10)” value is given as “I (<19% over-expression = I)”. In series [2], the “Target coverage for source genes of selected peptides, NHL (N = 10)” value is given as “I (<19% over-expression = I)”; the “Target coverage for source genes of selected peptides, PCA (n = 10)” value is reported as “I (<19% over-expression = I)”; the “Target coverage for source genes of selected peptides, UBC (N = 10)” value was “I (<19% over-expression = I)”; the “Target coverage for source genes of selected peptides, UTC (N = 10)” value is listed as “I (<19% over-expression = I)”. In addition, in series [3], the “Target coverage, over-expression category of source gene, BLCA (N = 408)” value is reported as “B (>=20% of tumors above the cutoff, but <50%)”; the “Target coverage, over-expression category of source gene, CESC (N = 307)” value is “A (>=50% of tumors above the cutoff)”; the “Target coverage, over-expression category of source gene, HNSC (N = 521)” value is “B (>=20% of tumors above the cutoff, but <50%)”; the “Target coverage, over-expression category of source gene, DLBC (N = 48)” value is on record as “B (>=20% of tumors above the cutoff, but <50%)”.
With “106: peptide found in KIFC1 (gene looked up) (IYNETVRDLL; listed as Homo sapiens) [compound 106]”, the ENTITIES result in series [1] is on record as “GC, GB, NSCLC”. Also, the “Target coverage, over-expression of source gene, AML” value in series [2] (setting [4]) is listed as “I (<19% over-expression = I)”. Also, in series [2] (setting [5]), the “Target coverage, over-expression of source gene, BRCA” value was “I (<19% over-expression = I)”; the “Target coverage, over-expression of source gene, CLL” value is “I (<19% over-expression = I)”; the “Target coverage, over-expression of source gene, CRC” value is on record as “I (<19% over-expression = I)”; the “Target coverage, over-expression of source gene, GB” value was “I (<19% over-expression = I)”. In addition, in series [2] (setting [5]), the “Target coverage, over-expression of source gene, HCC” value was “I (<19% over-expression = I)”; the “Target coverage, over-expression of source gene, OC” value is “II (20-49% = II)”; the “Target coverage, over-expression of source gene, OSCAR” value is reported as “I (<19% over-expression = I)”; the “Target coverage, over-expression of source gene, PC” value is on record as “I (<19% over-expression = I)”. In series [2] (setting [5]), the “Target coverage, over-expression of source gene, RCC” value was “I (<19% over-expression = I)”; the “Target coverage, over-expression of source gene, SCLC” value is listed as “I (<19% over-expression = I)”; the “Target coverage, over-expression of source gene, pNSCLC” value is reported as “I (<19% over-expression = I)”. For the same substance, in series [3], the “Target coverage, over-expression category of source gene, BLCA (N = 408)” value is recorded as “B (>=20% of tumors above the cutoff, but <50%)”; the “Target coverage, over-expression category of source gene, CESC (N = 307)” value is “A (>=50% of tumors above the cutoff)”; the “Target coverage, over-expression category of source gene, HNSC (N = 521)” value was “B (>=20% of tumors above the cutoff, but <50%)”; the “Target coverage, over-expression category of source gene, DLBC (N = 48)” value is “A (>=50% of tumors above the cutoff)”.

These data come from patent US10159726B2, “Peptides, combination of peptides and scaffolds for use in immunotherapeutic treatment of various cancers” (Immatics Biotechnologies GmbH, priority 2015, dated 2018).
